The list shows a part of the results.
Legend:
Test in all cases: log2 fold change, soluble protein after heating vs DMSO (PISA); higher = thermal stabilisation; K562 cells, 10 uM, 30 min; active = over 0.2 and 3.5 SD of the protein, either way, in both replicates (recomputed)
[1] = compound: COC1=CC=C(C=C1)CN2C=CC3=C2C=C(C=C3)C(=O)NO
Outline: (§1)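 K562 cells at 2×10^6 cells/mL were given 10 μM compound for 30 min. Aliquots then went through 3 min of heating across 48°C-58°C, were pooled, and were extracted in PBS with 0.5% NP-40 at 4°C, and the supernatant after 21,000xg for 90 min was quantified by TMTpro 16plex LC-MS/MS with channel sums equalised. Thermal stability relative to control samples, from duplicates, is given as log2 fold change.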

Amino acid sequences for entries named in this document (tags omitted). A change or cut given only in a name is not applied to a line headed by its entry.
UniProt Q9NRX4: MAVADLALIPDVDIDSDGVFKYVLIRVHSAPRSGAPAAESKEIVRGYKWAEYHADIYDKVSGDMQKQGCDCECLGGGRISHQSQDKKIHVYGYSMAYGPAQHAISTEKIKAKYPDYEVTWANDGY
UniProt O95336: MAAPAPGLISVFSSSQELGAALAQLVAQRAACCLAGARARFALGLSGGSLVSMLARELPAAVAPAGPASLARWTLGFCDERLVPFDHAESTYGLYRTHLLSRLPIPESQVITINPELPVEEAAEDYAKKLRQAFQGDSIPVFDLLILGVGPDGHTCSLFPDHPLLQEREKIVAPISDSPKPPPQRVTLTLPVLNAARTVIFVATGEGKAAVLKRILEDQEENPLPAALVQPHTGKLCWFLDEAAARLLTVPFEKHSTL
UniProt O00264: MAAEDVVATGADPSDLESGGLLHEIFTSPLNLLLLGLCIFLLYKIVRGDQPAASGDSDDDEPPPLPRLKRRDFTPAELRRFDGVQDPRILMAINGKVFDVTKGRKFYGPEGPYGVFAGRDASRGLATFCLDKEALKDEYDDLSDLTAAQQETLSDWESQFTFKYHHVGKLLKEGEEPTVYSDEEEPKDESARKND
UniProt P30613: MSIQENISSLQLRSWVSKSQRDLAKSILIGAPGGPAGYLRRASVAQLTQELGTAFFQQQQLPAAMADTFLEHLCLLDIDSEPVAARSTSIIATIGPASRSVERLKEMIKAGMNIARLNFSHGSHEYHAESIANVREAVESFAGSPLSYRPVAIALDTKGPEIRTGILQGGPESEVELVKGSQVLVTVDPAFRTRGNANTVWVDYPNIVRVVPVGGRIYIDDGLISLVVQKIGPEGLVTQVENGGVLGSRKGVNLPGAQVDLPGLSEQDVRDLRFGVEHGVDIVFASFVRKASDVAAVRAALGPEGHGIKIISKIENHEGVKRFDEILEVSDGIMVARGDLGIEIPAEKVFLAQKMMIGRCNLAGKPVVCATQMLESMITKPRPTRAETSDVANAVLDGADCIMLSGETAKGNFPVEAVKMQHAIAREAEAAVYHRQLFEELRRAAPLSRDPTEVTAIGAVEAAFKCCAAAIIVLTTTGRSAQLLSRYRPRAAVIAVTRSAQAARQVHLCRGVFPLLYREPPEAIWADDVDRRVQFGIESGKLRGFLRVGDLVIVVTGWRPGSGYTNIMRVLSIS
UniProt A6NDG6: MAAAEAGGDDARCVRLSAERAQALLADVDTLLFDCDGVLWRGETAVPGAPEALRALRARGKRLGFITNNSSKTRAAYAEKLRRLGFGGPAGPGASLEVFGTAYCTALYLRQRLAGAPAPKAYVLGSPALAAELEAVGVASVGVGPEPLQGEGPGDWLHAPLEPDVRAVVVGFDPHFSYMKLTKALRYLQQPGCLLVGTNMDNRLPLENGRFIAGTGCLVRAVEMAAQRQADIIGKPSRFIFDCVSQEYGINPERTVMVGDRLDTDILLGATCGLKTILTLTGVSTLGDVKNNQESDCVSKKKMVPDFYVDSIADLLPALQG
UniProt Q6P4A8: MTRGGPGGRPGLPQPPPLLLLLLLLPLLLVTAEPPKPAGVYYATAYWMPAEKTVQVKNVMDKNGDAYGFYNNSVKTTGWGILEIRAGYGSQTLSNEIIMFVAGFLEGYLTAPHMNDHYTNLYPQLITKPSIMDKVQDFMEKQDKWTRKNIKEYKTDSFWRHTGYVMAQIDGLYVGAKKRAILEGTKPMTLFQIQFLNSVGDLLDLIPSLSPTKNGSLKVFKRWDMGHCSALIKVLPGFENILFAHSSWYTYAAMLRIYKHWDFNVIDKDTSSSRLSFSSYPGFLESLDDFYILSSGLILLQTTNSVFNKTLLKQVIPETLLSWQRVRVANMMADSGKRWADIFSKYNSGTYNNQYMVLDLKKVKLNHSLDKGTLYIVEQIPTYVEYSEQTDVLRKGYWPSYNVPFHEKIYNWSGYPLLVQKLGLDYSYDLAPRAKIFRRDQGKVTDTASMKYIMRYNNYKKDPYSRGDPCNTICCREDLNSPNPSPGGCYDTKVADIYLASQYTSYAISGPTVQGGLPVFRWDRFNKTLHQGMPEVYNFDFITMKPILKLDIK
UniProt O60925, whole entry, looked up: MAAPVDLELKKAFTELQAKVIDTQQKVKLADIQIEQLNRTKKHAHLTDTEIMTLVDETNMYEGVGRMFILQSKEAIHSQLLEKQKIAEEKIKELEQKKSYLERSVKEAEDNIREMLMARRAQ
UniProt Q01813: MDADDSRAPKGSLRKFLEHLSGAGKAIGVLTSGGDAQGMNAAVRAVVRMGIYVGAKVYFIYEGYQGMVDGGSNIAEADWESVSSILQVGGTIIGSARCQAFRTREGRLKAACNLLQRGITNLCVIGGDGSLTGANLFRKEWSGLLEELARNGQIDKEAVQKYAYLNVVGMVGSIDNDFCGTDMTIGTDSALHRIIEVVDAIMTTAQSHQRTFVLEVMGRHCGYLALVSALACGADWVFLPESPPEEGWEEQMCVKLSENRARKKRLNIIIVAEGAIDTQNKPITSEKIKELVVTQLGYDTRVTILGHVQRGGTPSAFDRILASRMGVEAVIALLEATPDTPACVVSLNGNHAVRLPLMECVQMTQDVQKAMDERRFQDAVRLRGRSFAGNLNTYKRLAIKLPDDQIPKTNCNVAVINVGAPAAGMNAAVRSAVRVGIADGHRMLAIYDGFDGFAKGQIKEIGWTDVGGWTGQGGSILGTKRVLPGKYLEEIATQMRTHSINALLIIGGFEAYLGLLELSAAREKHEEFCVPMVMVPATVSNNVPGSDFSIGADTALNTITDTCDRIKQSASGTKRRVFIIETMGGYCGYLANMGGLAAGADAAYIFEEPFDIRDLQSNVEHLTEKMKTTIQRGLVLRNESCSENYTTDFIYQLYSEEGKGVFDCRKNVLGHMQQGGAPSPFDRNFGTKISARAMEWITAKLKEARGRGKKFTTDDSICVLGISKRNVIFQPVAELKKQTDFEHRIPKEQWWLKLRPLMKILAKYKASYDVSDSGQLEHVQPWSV
UniProt P28328: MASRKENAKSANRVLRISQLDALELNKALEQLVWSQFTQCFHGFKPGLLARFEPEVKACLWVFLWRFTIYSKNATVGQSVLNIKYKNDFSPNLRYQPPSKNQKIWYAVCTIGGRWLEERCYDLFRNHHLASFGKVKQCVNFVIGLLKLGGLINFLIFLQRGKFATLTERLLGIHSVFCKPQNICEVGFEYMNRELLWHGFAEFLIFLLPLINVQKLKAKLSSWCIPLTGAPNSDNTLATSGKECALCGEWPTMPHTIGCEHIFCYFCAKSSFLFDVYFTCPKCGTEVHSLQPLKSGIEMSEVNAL
UniProt P07205: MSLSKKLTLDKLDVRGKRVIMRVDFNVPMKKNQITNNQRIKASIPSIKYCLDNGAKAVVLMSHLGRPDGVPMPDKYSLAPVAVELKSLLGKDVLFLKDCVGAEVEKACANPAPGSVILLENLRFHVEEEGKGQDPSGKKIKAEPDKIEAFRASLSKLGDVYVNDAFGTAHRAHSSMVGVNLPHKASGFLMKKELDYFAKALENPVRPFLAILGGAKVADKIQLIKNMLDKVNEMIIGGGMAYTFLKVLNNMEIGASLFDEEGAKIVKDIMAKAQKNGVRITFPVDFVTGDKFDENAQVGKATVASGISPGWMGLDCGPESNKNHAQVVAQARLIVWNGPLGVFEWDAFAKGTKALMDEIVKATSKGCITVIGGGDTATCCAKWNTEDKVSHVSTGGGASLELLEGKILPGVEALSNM
UniProt P12273: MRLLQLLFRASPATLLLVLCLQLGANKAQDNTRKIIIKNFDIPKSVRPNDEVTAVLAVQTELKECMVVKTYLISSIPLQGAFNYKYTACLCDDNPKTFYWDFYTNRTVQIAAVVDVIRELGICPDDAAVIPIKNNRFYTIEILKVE
UniProt P53609, whole entry, looked up: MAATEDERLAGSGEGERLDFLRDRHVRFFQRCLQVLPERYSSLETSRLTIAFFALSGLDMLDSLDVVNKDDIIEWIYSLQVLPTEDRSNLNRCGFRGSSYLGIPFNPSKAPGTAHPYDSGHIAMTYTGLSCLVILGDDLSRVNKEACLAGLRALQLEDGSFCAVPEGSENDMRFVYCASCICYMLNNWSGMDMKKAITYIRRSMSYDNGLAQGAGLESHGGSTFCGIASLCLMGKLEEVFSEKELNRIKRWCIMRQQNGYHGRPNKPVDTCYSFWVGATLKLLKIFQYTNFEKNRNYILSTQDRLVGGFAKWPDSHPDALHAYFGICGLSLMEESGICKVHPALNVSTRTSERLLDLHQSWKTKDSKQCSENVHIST
UniProt Q8TBX8: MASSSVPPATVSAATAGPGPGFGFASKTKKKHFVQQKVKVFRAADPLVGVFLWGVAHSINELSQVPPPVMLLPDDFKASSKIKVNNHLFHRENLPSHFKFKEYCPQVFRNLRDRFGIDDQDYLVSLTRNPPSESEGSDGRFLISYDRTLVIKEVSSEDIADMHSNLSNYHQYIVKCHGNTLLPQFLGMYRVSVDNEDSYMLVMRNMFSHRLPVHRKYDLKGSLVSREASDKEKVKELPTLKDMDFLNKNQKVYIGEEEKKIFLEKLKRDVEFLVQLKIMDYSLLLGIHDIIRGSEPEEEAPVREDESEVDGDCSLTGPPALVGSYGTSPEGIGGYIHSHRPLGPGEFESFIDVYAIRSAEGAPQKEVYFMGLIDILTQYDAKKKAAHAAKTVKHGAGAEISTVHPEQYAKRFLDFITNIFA
UniProt O43164: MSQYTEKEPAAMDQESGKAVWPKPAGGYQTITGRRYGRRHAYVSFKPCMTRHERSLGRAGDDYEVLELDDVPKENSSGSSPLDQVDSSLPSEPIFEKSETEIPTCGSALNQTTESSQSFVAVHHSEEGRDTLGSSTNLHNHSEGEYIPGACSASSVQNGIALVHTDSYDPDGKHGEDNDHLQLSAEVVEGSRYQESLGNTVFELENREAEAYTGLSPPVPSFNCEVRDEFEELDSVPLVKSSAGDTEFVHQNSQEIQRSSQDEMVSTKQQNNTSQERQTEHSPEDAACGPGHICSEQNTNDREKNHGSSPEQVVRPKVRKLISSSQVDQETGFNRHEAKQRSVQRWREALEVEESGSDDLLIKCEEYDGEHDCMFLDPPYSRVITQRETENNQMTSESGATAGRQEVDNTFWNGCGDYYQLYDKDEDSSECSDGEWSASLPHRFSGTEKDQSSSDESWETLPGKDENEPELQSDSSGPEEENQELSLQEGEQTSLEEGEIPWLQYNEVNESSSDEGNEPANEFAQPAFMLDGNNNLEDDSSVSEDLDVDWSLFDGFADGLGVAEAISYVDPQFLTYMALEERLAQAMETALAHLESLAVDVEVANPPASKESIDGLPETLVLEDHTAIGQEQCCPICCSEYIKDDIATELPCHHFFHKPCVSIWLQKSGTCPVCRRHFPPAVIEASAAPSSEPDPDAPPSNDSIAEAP
UniProt Q96BK5: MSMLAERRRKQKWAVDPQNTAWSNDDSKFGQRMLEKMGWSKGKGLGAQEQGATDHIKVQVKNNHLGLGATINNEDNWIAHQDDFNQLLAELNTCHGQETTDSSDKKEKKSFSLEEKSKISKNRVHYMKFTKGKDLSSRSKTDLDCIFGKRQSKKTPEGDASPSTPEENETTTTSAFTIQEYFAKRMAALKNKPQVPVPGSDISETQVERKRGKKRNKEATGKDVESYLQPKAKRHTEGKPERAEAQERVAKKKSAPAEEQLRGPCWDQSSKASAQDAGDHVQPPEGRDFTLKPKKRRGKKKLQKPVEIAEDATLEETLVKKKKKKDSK
UniProt O15173: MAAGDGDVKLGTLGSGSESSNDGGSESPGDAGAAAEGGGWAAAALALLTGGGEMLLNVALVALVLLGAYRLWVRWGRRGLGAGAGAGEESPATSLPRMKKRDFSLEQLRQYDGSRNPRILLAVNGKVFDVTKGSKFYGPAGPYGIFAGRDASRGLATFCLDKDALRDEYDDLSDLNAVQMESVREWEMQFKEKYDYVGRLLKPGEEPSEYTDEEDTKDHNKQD
UniProt Q9UHV9, whole entry, looked up: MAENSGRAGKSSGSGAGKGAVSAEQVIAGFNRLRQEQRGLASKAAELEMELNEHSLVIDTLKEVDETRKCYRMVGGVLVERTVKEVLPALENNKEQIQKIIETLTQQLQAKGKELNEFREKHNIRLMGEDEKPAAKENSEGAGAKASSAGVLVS
UniProt Q13526, whole entry, looked up: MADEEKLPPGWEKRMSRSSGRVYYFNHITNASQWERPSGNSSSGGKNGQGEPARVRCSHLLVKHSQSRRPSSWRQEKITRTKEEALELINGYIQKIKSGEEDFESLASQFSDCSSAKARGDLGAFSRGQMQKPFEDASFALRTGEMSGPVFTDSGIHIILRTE
UniProt Q86T03: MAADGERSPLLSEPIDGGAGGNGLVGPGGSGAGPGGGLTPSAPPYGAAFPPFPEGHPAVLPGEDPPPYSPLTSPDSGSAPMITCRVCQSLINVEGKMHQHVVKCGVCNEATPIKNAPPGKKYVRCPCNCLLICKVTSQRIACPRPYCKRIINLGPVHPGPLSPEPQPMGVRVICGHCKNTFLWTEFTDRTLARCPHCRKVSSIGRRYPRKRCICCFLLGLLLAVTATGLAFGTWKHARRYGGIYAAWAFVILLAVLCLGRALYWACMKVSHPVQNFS

[2] = compound: CON(C)C(=O)N1N=C(c2cc(F)ccc2F)S[C@@]1(CCCN)c1ccccc1 [filanesib]
Outline: as §1

[3] = compound: CO[C@H]1C[C@@H]2CC[C@@H](C)[C@@](O)(O2)C(=O)C(=O)N2CCCC[C@H]2C(=O)O[C@H]([C@H](C)C[C@@H]2CC[C@H](n3cnnn3)[C@H](OC)C2)CC(=O)[C@H](C)/C=C(\C)[C@@H](O)[C@@H](OC)C(=O)[C@H](C)C[C@H](C)/C=C/C=C/C=C/1C [zotarolimus]
Outline: as §1

[4] = compound: COc1cc(C(=O)O)ccc1NC(=O)[C@@H]1N[C@@H](CC(C)(C)C)[C@](C#N)(c2ccc(Cl)cc2F)[C@H]1c1cccc(Cl)c1F [idasanutlin]
Outline: as §1

[5] = compound: COc1cc(Nc2ncc3c(n2)-c2ccc(Cl)cc2C(c2c(F)cccc2OC)=NC3)ccc1C(=O)O [alisertib]
Outline: as §1

[6] = compound: COc1cc2nc(-c3cc(F)ccc3O)nc(N[C@@H]3CNC[C@H]3C(C)(C)O)c2cc1OC
Outline: as §1

[7] = compound: COc1cc2ncnc(Nc3ccc(F)c(Cl)c3)c2cc1OCCCN1CCOCC1 [gefitinib]
Outline: as §1

[8] = compound: COc1cccc2cc(-c3nc([C@H]4CC[C@H](C(=O)O)CC4)n4ncnc(N)c34)[nH]c12
Outline: as §1

[9] = compound: CS(=O)(=O)CCNCc1ccc(-c2ccc3ncnc(Nc4ccc(OCc5cccc(F)c5)c(Cl)c4)c3c2)o1 [lapatinib]
Outline: as §1

[10] = compound: CS(=O)(=O)N1CCN(Cc2cc3nc(-c4cccc5[nH]ncc45)nc(N4CCOCC4)c3s2)CC1 [pictilisib]
Outline: as §1

Measured: log2 fold change

PHPT1 (UniProt Q9NRX4)
inactive: [1] -0.121 | [2] 0.039 | [3] 0.005 | [4] -0.012 | [5] -0.001 | [6] 0.002 | [7] 0.038 | [8] 0.024 | [9] -0.04 | [10] 0.11

PGLS (UniProt O95336)
inactive: [1] -0.1 | [2] 0.048 | [3] 0.033 | [4] -0.013 | [5] -0.139 | [6] -0.131 | [7] 0.026 | [8] 0.059 | [9] -0.107 | [10] 0.049

PGRMC1 (UniProt O00264)
inactive: [1] -0.027 | [2] 0.001 | [3] -0.052 | [4] 0.05 | [5] -0.094 | [6] 0.005 | [7] 0.033 | [8] 0.057 | [9] 0.016 | [10] -0.029

PKLR (UniProt P30613)
inactive: [1] 0.01 | [2] -0.016 | [3] 0.024 | [4] -0.013 | [5] -0.073 | [6] 0.024 | [7] -0.002 | [8] 0.047 | [9] -0.017 | [10] 0.02

PGP (UniProt A6NDG6)
inactive: [1] -0.031 | [2] -0.073 | [3] 0.005 | [4] -0.053 | [5] -0.027 | [6] -0.001 | [7] 0.004 | [8] 0.008 | [9] 0.01 | [10] 0.055

PLBD1 (UniProt Q6P4A8)
inactive: [1] -0.076 | [2] -0.051 | [3] -0.057 | [4] 0.019 | [5] 0.169 | [6] -0.016 | [7] 0.019 | [8] 0.048 | [9] 0.03 | [10] 0.039

PFDN1 (UniProt O60925)
inactive: [1] -0.048 | [2] -0.007 | [3] 0.091 | [4] -0.024 | [5] -0.042 | [6] -0.125 | [7] -0.002 | [8] 0.026 | [9] -0.047 | [10] 0.014

PIGN (UniProt O95427)
inactive: [1] -0.155 | [2] -0.123 | [3] 0.086 | [4] -0.069 | [5] -0.118 | [6] 0.136 | [7] -0.031 | [8] -0.122 | [9] -0.281 | [10] 0.059

PFKP (UniProt Q01813)
inactive: [1] -0.004 | [2] -0.025 | [3] 0.041 | [4] 0.004 | [5] -0.006 | [6] 0.039 | [7] 0.003 | [8] 0.022 | [9] 0.02 | [10] 0.061

PEX2 (UniProt P28328)
inactive: [1] 0.02 | [2] 0 | [3] 0.049 | [4] -0.174 | [5] 0.063 | [6] 0.019 | [7] 0.005 | [8] 0.045 | [9] 0.009 | [10] -0.093

PGK2 (UniProt P07205)
inactive: [1] 0.016 | [2] -0.003 | [3] -0.029 | [4] 0.001 | [5] 0.08 | [6] 0.14 | [7] 0.068 | [8] 0.001 | [9] -0.093 | [10] 0.041

PIGK (UniProt Q92643)
inactive: [1] 0.049 | [2] 0.012 | [3] -0.03 | [4] 0.065 | [5] 0.077 | [6] -0.025 | [7] -0.038 | [8] -0.065 | [9] 0.055 | [10] 0.04

PIP (UniProt P12273)
inactive: [1] 0.385 | [2] 0.171 | [3] -0.071 | [4] 0.093 | [5] -0.139 | [6] 0.206 | [7] 0.526 | [8] -0.042 | [9] -0.034 | [10] -0.152

PGGT1B (UniProt P53609)
inactive: [1] -0.112 | [2] 0.047 | [3] -0.006 | [4] -0.025 | [5] -0.03 | [6] -0.031 | [7] -0.013 | [8] 0.058 | [9] -0.019 | [10] 0.037

PIP4K2C (UniProt Q8TBX8)
active: [6] 0.866
inactive: [1] 0.058 | [2] -0.025 | [3] -0.021 | [4] -0.186 | [5] -0.021 | [7] 0.115 | [8] 0.684 | [9] -0.043 | [10] 0.134

PHGDH (UniProt O43175)
inactive: [1] 0.011 | [2] -0.014 | [3] -0.001 | [4] -0.011 | [5] -0.049 | [6] -0.016 | [7] 0.008 | [8] 0.031 | [9] 0.012 | [10] 0.016

PJA2 (UniProt O43164)
inactive: [1] -0.022 | [2] 0.004 | [3] -0.071 | [4] 0.11 | [5] -0.008 | [6] 0.024 | [7] -0.016 | [8] 0.001 | [9] -0.001 | [10] -0.049

PHACTR2 isoform 4 (UniProt O75167)
inactive: [1] 0 | [2] 0.003 | [3] -0.044 | [4] 0.054 | [5] -0.041 | [6] -0.081 | [7] 0.223 | [8] 0.085 | [9] -0.043 | [10] 0.053

Taken from the entries so far (six entries):
PIP (UniProt P12273)
inactive: [1] 0.385 | [2] 0.171 | [3] -0.071 | [4] 0.093 | [5] -0.139 | [6] 0.206 | [7] 0.526 | [8] -0.042 | [9] -0.034 | [10] -0.152

PGGT1B (UniProt P53609)
inactive: [1] -0.112 | [2] 0.047 | [3] -0.006 | [4] -0.025 | [5] -0.03 | [6] -0.031 | [7] -0.013 | [8] 0.058 | [9] -0.019 | [10] 0.037

PIP4K2C (UniProt Q8TBX8)
active: [6] 0.866
inactive: [1] 0.058 | [2] -0.025 | [3] -0.021 | [4] -0.186 | [5] -0.021 | [7] 0.115 | [8] 0.684 | [9] -0.043 | [10] 0.134

PHGDH (UniProt O43175)
inactive: [1] 0.011 | [2] -0.014 | [3] -0.001 | [4] -0.011 | [5] -0.049 | [6] -0.016 | [7] 0.008 | [8] 0.031 | [9] 0.012 | [10] 0.016

PJA2 (UniProt O43164)
inactive: [1] -0.022 | [2] 0.004 | [3] -0.071 | [4] 0.11 | [5] -0.008 | [6] 0.024 | [7] -0.016 | [8] 0.001 | [9] -0.001 | [10] -0.049

PHACTR2 isoform 4 (UniProt O75167)
inactive: [1] 0 | [2] 0.003 | [3] -0.044 | [4] 0.054 | [5] -0.041 | [6] -0.081 | [7] 0.223 | [8] 0.085 | [9] -0.043 | [10] 0.053

Carrying on.

PGM3 isoform 4 (UniProt O95394)
inactive: [1] 0.052 | [2] -0.135 | [3] 0.007 | [4] -0.079 | [5] -0.007 | [6] 0 | [7] -0.028 | [8] -0.01 | [9] -0.014 | [10] -0.047

PI4KA (UniProt P42356)
inactive: [1] -0.01 | [2] 0.113 | [3] 0.021 | [4] -0.01 | [5] -0.029 | [6] 0.02 | [7] 0.082 | [8] -0.162 | [9] 0.069 | [10] 0.164

PINX1 (UniProt Q96BK5)
inactive: [1] -0.276 | [2] 0.414 | [3] -0.108 | [4] 0.237 | [5] -0.135 | [6] 0.122 | [7] -0.032 | [8] -0.207 | [9] 0.255 | [10] -0.372

PGRMC2 isoform 2 (UniProt O15173)
inactive: [1] 0.01 | [2] -0.09 | [3] 0.035 | [4] -0.016 | [5] -0.088 | [6] 0 | [7] 0.017 | [8] 0.005 | [9] -0.019 | [10] -0.011

PFDN2 (UniProt Q9UHV9)
inactive: [1] -0.051 | [2] -0.023 | [3] -0.002 | [4] -0.012 | [5] -0.019 | [6] -0.016 | [7] -0.003 | [8] 0.057 | [9] -0.017 | [10] 0.039

PIN1 (UniProt Q13526)
inactive: [1] 0.018 | [2] -0.016 | [3] -0.004 | [4] -0.028 | [5] 0.004 | [6] 0.071 | [7] 0.044 | [8] -0.012 | [9] -0.051 | [10] 0.001

PIP4P1 isoform 2 (UniProt Q86T03)
inactive: [1] 0.089 | [3] 0.004 | [4] 0.002 | [5] 0.032 | [6] -0.072 | [7] -0.018 | [8] -0.058 | [9] 0.06 | [10] -0.061
active: [2] -0.32

PEX7 (UniProt O00628)
inactive: [1] 0.013 | [2] -0.063 | [3] 0.058 | [4] -0.002 | [5] -0.01 | [6] -0.09 | [7] -0.003 | [8] 0.072 | [9] -0.032 | [10] 0.055

PEX3 (UniProt P56589)
inactive: [1] -0.055 | [2] 0.282 | [3] 0.137 | [4] -0.112 | [5] 0.001 | [6] 0.298 | [7] -0.044 | [8] -0.185 | [9] -0.009

Reference: the supplement of paper PMC10849652
